Nine molecules from PubChem BioAssay AID328 (DTP/NCI, 2004) can be followed below.

This assay relates to BDF1 mice, P388 leukemia ip, median survival T/C. In words: NCI In Vivo Anticancer Drug Screen. Data for tumor model P388 Leukemia (intraperitoneal) in B6D2F1 (BDF1) mice. The settings on record: T/C endpoint: median survival time, higher T/C = longer survival. The method in brief:
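In tumour-bearing mice, survival after compound treatment is set against the vehicle group and given as a quotient.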

Structures are written as SMILES. The list shows only some results of the screen, not a fair sample: it gathers tests that were run many times, whatever their T/C, doses with no T/C, and many T/C values between a quarter and a half above the control. Other doses and runs of a compound stand elsewhere. T/C gives the treated animals as a percentage of the vehicle group. Some doses have a count of surviving animals in place of a T/C: the source holds a T/C of zero for them, seemingly a mark for toxic or unscored doses. Some survivor counts are full or nearly so, which does not show that the dose was tolerated: survival well below the control is almost never listed, so the zero probably covers shortened survival too. Counts of survivors are from the toxicity check (mostly the fifth day) where no day follows; animals may have died later. Schedules are NCI's codes, read here as Q, the interval in days (D) or hours (H), X, the number of doses. Where survival is the endpoint, the PubChem record calls one and a half times the control and up active, and a quarter to a half above the control has no call in these data; cut-offs in other NCI protocols can differ. Some entries were tested several times; the values are given in rising order. Some T/C values carry the count of animals alive at the toxicity check (mostly the fifth day); where none is given, no animal had died by that day.

For the molecule `Clc1nn2cnnc2c2ccccc12`, the survivor count (dose: 20.0 mg/kg/injection, schedule: Q01DX009 (ip), vehicle: saline) was 4 of 7.

For the molecule `Cc1cc(C)c(CCl)cc1CCl`, the T/C reads like this: (dose: 7.0 mg/kg/injection, schedule: Q01DX009 (ip), vehicle: saline with Tween-80) 125 and 136 % of control; (dose: 11.0 mg/kg/injection, schedule: Q01DX009 (ip), vehicle: saline with Tween-80) 136 % of control; (dose: 12.5 mg/kg/injection, schedule: Q01DX009 (ip), vehicle: saline with Tween-80) 127 % of control; (dose: 16.0 mg/kg/injection, schedule: Q01DX009 (ip), vehicle: saline with Tween-80) 144 % of control; (dose: 16.5 mg/kg/injection, schedule: Q01DX009 (ip), vehicle: saline with Tween-80) 129 % of control; (dose: 25.0 mg/kg/injection, schedule: Q01DX009 (ip), vehicle: saline with Tween-80, evaluated on day 20) 136 % of control. Also, the T/C was 125 [5 of 6 alive] and 141 % of control (dose: 25.0 mg/kg/injection, schedule: Q01DX009 (ip), vehicle: saline with Tween-80, evaluated on day 30); 133 % of control (dose: 37.5 mg/kg/injection, schedule: Q01DX009 (ip), vehicle: saline with Tween-80).

On to `CC(=O)NC(CO)(CO)CO`, for which the survivor count (dose: 400.0 mg/kg/injection, schedule: Q01DX001 (ip), vehicle: saline) was 6 of 6.

For the molecule `CCOC(=O)Cc1csc(NN=C(C)C)n1`, the survivor count (dose: 200.0 mg/kg/injection, schedule: Q01DX009 (ip), vehicle: saline) was 0 of 6.

`O/N=C\c1ccccc1`: the survivor count is 3 of 6 (dose: 150.0 mg/kg/injection, schedule: Q01DX009 (ip), vehicle: Klucel (hydroxypropylcellulose) (HPC)); 6 of 6 (dose: 225.0 mg/kg/injection, schedule: Q01DX009 (ip), vehicle: Klucel (hydroxypropylcellulose) (HPC)); 4 of 6 (dose: 300.0 mg/kg/injection, schedule: Q04DX003 (ip), vehicle: saline with Tween-80).

Regarding `Cc1cc(O)c2c(c1O)C(=O)C13C(=C2O)C(=O)C2C(O)C1C1C(O)C3C(=O)C3=C(O)c4c(O)cc(C)c(O)c4C(=O)C321` (centres undefined), the T/C by setting is: (dose: 5.56 mg/kg/injection, schedule: Q04DX003 (ip), vehicle: saline with Tween-80) 131 % of control; (dose: 6.0 mg/kg/injection, schedule: Q04DX003 (ip), vehicle: saline with Tween-80) 127 % of control; (dose: 6.25 mg/kg/injection, schedule: Q04DX003 (ip), vehicle: saline with Tween-80) 125 % of control; (dose: 8.33 mg/kg/injection, schedule: Q04DX003 (ip), vehicle: saline with Tween-80) 136 % of control; (dose: 9.0 mg/kg/injection, schedule: Q04DX003 (ip), vehicle: saline with Tween-80) 127 % of control; (dose: 12.5 mg/kg/injection, schedule: Q04DX003 (ip), vehicle: saline with Tween-80) 140 and 145 % of control. Besides, the T/C (dose: 18.7 mg/kg/injection, schedule: Q04DX003 (ip), vehicle: saline with Tween-80) is 131 % of control. Moreover, the survivor count (dose: 25.0 mg/kg/injection, schedule: Q04DX003 (ip), vehicle: saline with Tween-80) is on record as 5 of 6.

As for `Cc1cc(C)c(C)c(Br)c1`, under “dose: 25.0 mg/kg/injection, schedule: Q01DX009 (ip), vehicle: saline with Tween-80”, the survivor count is reported as 5 of 6.

Regarding `CN1CCC2=C(C1)C(N1CCCCC1)CS(=O)(=O)O2` (centres undefined), the survivor count runs as follows: (dose: 100.0 mg/kg/injection, schedule: Q04DX002 (ip), vehicle: saline) 5 of 6; (dose: 200.0 mg/kg/injection, schedule: Q04DX002 (ip), vehicle: saline with Tween-80) 1 of 6; (dose: 400.0 mg/kg/injection, schedule: Q04DX002 (ip), vehicle: saline with Tween-80) 0 of 6.

For `O=C1CCC(=O)N1CO`, the T/C (dose: 75.0 mg/kg/injection, schedule: Q04DX003 (ip), vehicle: saline) is 127 % of control; the T/C (dose: 100.0 mg/kg/injection, schedule: Q04DX003 (ip), vehicle: saline) is 127 % of control; the T/C (dose: 150.0 mg/kg/injection, schedule: Q04DX003 (ip), vehicle: saline) is 140 % of control.
